Results taken from PubChem BioAssay AID493014 (National Center for Advancing Translational Sciences (NCATS), 2011).
Some of the results follow. Further columns of the screen follow, without active or inactive calls. Compounds called inactive in the main read-out are mostly missing here. Words in brackets tell the shape of the fitted curve; partial curves, single points and poor fits give uncertain potencies. Square brackets hold non-standard residues; d marks the D form. Peptide text beside a SMILES is read from it. * marks the point of attachment. Hyp = O=C(O)[CH]1C[CH](O)CN1; Cbz = O=C(OCc1ccccc1)*; OBn = c1ccc(CO*)cc1

Assay: qHTS Assay to Find Inhibitors of Chronic Active B-Cell Receptor Signaling
Conditions: ABC-DLBCL IkBa-CBG/CBR reporter, luminescence ratio (green luciferase fused to IkBa over red control in TMD8 lymphoma cells), 4 h
Summary of the method: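 TMD8 ABC-DLBCL cells carrying doxycycline-inducible green luciferase fused to IkappaBalpha plus unfused red luciferase were exposed to compounds (up to 46 uM) for 4 hrs at 37C. Activity came from the overlap-corrected green/red luminescence ratio.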

[1] = measured here: CBR red luminescence, cell number
[2] = measured here: IkBa-CBG green luminescence

Row | Structure (SMILES) | AC50 [1] | AC50 [2]
1 | CCOC(=O)c1cc(=O)n2nc(-c3ccccc3F)nc2s1 | 1.16 µM [rising, full curve] | 
2 | C/C(=N/NC(=S)Nc1ccccc1)c1ccc2c(c1)OCO2 | 18.4 µM [falling, single point] | 
3 | Cc1nc(Sc2ccccc2)c(C#N)cc1-c1ccccc1 | 2 µM [rising, full curve, poor fit] | 
4 | O=C(CN1C(=O)CCC1=O)Nc1nc(-c2ccccn2)cs1 | 5.17 µM [falling, partial curve, poor fit] | 
5 | COc1cc(OC)cc(C(=O)n2nc(C)cc2C)c1 | 5.8 µM [rising, full curve, poor fit] | 
6 | CCOC(=O)CC1C(=O)NCCN1C(=O)c1ccc(Cl)cc1 (stereo unspecified) | 35.5 µM [rising, single point] | 
7 | C#CCOCCOCCOCCNc1nc(N2CCN(C(=O)[C@H](CCCCN)n3cc(CN)nn3)CC2)nc(N2CCN(C(=O)[C@H](CCCN=C(N)N)n3cc(C(N)[C@H](C)CC)nn3)CC2)n1 (stereo partly specified) | 29.1 µM [rising, single point] | 
8 | O=C(c1cnn2cccnc12)N1CCN(c2ccccc2)CC1 | 2.31 µM [rising, single point] | 
9 | Nn1c(SCc2cn3ccsc3n2)nnc1-c1ccncc1 | 29.1 µM [rising, single point] | 
10 | O=C(NC1CC1)C1CCN(c2ccc(S(=O)(=O)N3CCOCC3)cc2)CC1 | 23.1 µM [falling, single point] | 
11 | COc1ccc(-c2cn3nc(N4CCCC(C(=O)NCc5ccc(Cl)cc5)C4)sc3n2)cc1 (stereo unspecified) | 7.08 µM [rising, full curve, poor fit] | 
12 | Cc1occc1C(=O)NNC(=O)CN1C(=O)NC(C)(c2ccccc2)C1=O (stereo unspecified) | 5.17 µM [falling, single point] | 
13 | COC(=O)COc1ccc2c(-c3ccc(OC)cc3)cc(=O)oc2c1 | 7.31 µM [falling, partial curve, poor fit] | 
14 | Cc1ccc(CN2C(=O)c3ccccc3Sc3ccc(C(=O)NCCN4CCOCC4)cc32)cc1 | 28.2 µM [falling, single point] | 
15 | CCOC(=O)Cn1nc(/C=C/c2ccccc2)ccc1=O | 0.178 µM [rising, full curve, poor fit] | 
16 | CCN1C(=O)[C@H]2[C@@H](c3ccc(C)cc3)N3C(=O)N(c4cccc(Cl)c4)C(=O)[C@@]3(Cc3ccc(Cl)cc3)[C@H]2C1=O | 13 µM [falling, partial curve, poor fit] | 
17 | COC(=O)c1sccc1NC(=O)c1cccc(OC)c1 | 20.6 µM [falling, single point] | 
18 | O=C(Nc1ccc(N2CCCC(O)C2)cc1)c1snc2c(=O)[nH]cnc12 (stereo unspecified) | 0.82 µM [falling, partial curve, poor fit] | 
19 | CCc1cc(=O)oc2cc(C)cc(OC(=O)c3ccco3)c12 | 29.1 µM [rising, single point] | 20.6 µM [falling, single point]
20 | Nn1c(Cc2ccccc2)n[nH]c1=S | 3.16 µM [rising, single point] | 
21 | COc1cccc(-c2[nH]nc3c2C(c2ccsc2)C(C#N)=C(N)O3)c1 (stereo unspecified) | 0.708 µM [falling, full curve, poor fit] | 

Row | Structure (SMILES) | AC50 [1] | AC50 [2]
22 | Cn1ccnc1C(=O)c1ccc(NN)c([N+](=O)[O-])c1 | 12.6 µM [falling, partial curve] | 
23 | CCOc1cccc(C2C(C(=O)c3ccco3)=C(O)C(=O)N2c2nnc(C)s2)c1 (stereo unspecified) | 1.46 µM [rising, partial curve, poor fit] | 
24 | Cc1c(C(=O)N(CCc2ccccc2)Cc2ccccc2)cccc1[N+](=O)[O-] | 15.8 µM [falling, single point] | 
25 | O=C(CN1C(=O)c2ccccc2C1=O)OCc1nc2ccsc2c(=O)[nH]1 | 1.03 µM [rising, partial curve, poor fit] | 
26 | Cc1cc(=O)[nH]c(SCC(=O)N2c3ccccc3CC2C)n1 (stereo unspecified) | 32.6 µM [rising, single point] | 
27 | CSc1nsc(SCC(=O)Nc2ccccc2C(=O)O)n1 | 10 µM [falling, partial curve] | 
28 | COc1ccc(C)cc1Nc1cc(C)nc2ncnn12 | 18.4 µM [rising, partial curve] | 18.4 µM [falling, partial curve, poor fit]
29 | c1ccc(-n2nnnc2SCc2cccc3nsnc23)cc1 | 5.62 µM [falling, single point] | 
30 | Cc1ccc(C(=O)/C=C/Nc2cccc([N+](=O)[O-])c2)o1 | 29.1 µM [falling, single point] | 
31 | Cc1cccc(C(=O)Oc2ccc(/C=N/NC(=O)c3cc(O)cc(O)c3)cc2)c1 | 4.47 µM [falling, partial curve, poor fit] | 
32 | COc1c2c(nc3ccccc13)OC(C(C)(O)COC(C)=O)C2 (stereo unspecified) | 2.31 µM [rising, single point] | 
33 | Cc1c(CCO)c(=O)[nH]n1S(=O)(=O)c1ccc(Cl)cc1Cl | 1 µM [rising, full curve] | 
34 | O=C(Nc1ccc2c(c1)OCCO2)c1ccccc1F | 11.2 µM [falling, partial curve] | 
35 | O=C(COC(=O)CN1C(=O)c2ccccc2C1=O)NC1CCCCC1 | 5.01 µM [rising, full curve, poor fit] | 
36 | COc1ccc2oc(C(=O)NCCN3CCOCC3)c(C)c2c1OC | 11.2 µM [falling, partial curve] | 
37 | CC1(C)CC(=O)C(CC(=O)NC(=O)NCc2ccccc2)=C(O)C1 | 32.6 µM [rising, single point] | 
38 | O=C(NCC(=O)N1CC(O)CC1C(=O)N1CC(O)CC1C(=O)OCc1ccccc1)OCc1ccccc1 (stereo not drawn) (Cbz-Gly-[Hyp]-[Hyp]-OBn; configuration not given here) | 6.31 µM [falling, partial curve, poor fit] | 
39 | CCOc1cc(C(=O)NC(CC(=O)O)c2ccc(OC3CCCC3)cc2)cc(OCC)c1OCC (stereo unspecified) | 15.8 µM [falling, single point] | 
40 | COc1ccc(Nc2oc(-c3ccc(F)cc3)nc2C#N)cc1 | 0.891 µM [rising, full curve] | 
41 | CC(C)(C)OC(=O)NNC(=O)Nc1ccccc1C(F)(F)F | 12.6 µM [rising, partial curve, poor fit] | 
42 | Cc1cc(=O)oc2cc(OCCc3ccccc3)ccc12 | 35.5 µM [falling, partial curve, poor fit] | 

From compound 1 up to 5, copied from above:
Row | Structure (SMILES) | AC50 [1] | AC50 [2]
1 | CCOC(=O)c1cc(=O)n2nc(-c3ccccc3F)nc2s1 | 1.16 µM [rising, full curve] | 
2 | C/C(=N/NC(=S)Nc1ccccc1)c1ccc2c(c1)OCO2 | 18.4 µM [falling, single point] | 
3 | Cc1nc(Sc2ccccc2)c(C#N)cc1-c1ccccc1 | 2 µM [rising, full curve, poor fit] | 
4 | O=C(CN1C(=O)CCC1=O)Nc1nc(-c2ccccn2)cs1 | 5.17 µM [falling, partial curve, poor fit] | 
5 | COc1cc(OC)cc(C(=O)n2nc(C)cc2C)c1 | 5.8 µM [rising, full curve, poor fit] | 

Continuation.

Row | Structure (SMILES) | AC50 [1] | AC50 [2]
43 | Cc1ccc(CN2CCN(/N=C/c3cc([N+](=O)[O-])ccc3Cl)CC2)cc1 | 4.11 µM [rising, single point] | 
44 | Cc1nc(SC(C)C(=O)NC2CCCC2)c2ccccc2n1 (stereo unspecified) | 29.1 µM [falling, single point] | 
45 | CC(C)[C@H](NC(=O)N1CCn2c1nc1ccccc12)C(=O)NCc1ccc2c(c1)OCO2 | 35.5 µM [falling, single point] | 
46 | CC(=O)c1c(C)[nH]c(C(=O)CSc2ccc(F)cc2)c1C | 2.51 µM [rising, full curve, poor fit] | 
47 | O=C(Nc1nccs1)c1sc2ccccc2c1Cl | 13 µM [falling, partial curve] | 
48 | COc1ccc(C(c2sc3nc(C)nn3c2O)N2CCN(Cc3ccccc3)CC2)cc1OC (stereo unspecified) | 5.17 µM [falling, partial curve, poor fit] | 
49 | COc1ccc(NS(=O)(=O)c2cccc(C(=O)NNC(=O)c3ccccc3O)c2)cc1 | 29.1 µM [falling, single point] | 
50 | CC(=O)Nc1ccc(S(=O)(=O)N(C)CC(=O)Nc2nc3ccccc3[nH]2)cc1 | 20.6 µM [falling, single point] | 
51 | COCCNC(=S)N/N=C(\C)c1ccc(OC)cc1 | 32.6 µM [falling, single point] | 29.1 µM [falling, single point]
52 | CCc1cc(C(=O)NNC(=S)NC(C)c2ccccc2)cs1 (stereo unspecified) | 29.1 µM [falling, single point] | 
53 | COc1cc2c(cc1NC(=O)Nc1ccccc1)oc1ccccc12 | 35.5 µM [falling, single point] | 
54 | N#CCc1nc(C(c2ccccc2)c2ccccc2)no1 | 10 µM [falling, partial curve, poor fit] | 
55 | CC(c1n[nH]c(=S)n1-c1ccccc1)N1CCCCC1 (stereo unspecified) | 7.94 µM [rising, partial curve, poor fit] | 
56 | COc1cccc(OC)c1C(=O)Nc1cccc(C(=O)Nc2cccc(C(=O)O)c2)c1 | 11.2 µM [falling, partial curve] | 
57 | CCN1C(=O)c2cccc3c(S(=O)(=O)Nc4ccccc4OC)ccc1c23 | 35.5 µM [rising, single point] | 
58 | S=C(NCc1ccco1)Nc1cc(Cl)c(Cl)cc1Cl | 16.4 µM [falling, partial curve] | 
59 | Cc1ccc(-c2csc3nc(C)n(-n4c(C)ccc4C)c(=O)c23)o1 | 2.82 µM [rising, full curve] | 
60 | Cc1cc(-c2nnc(SCC(=O)Nc3nc(-c4ccccc4)cs3)o2)no1 | 0.501 µM [rising, full curve, poor fit] | 
61 | COc1cc(C(=O)NCC(=O)N/N=C\C(C)=C/c2ccccc2)cc(OC)c1OC | 0.398 µM [rising, full curve, poor fit] | 
62 | CC1(C)CC(=O)C=C(NNC(=O)c2cccnc2)C1 | 14.1 µM [falling, single point] | 
63 | CC(NCC(O)COc1ccc(S(=O)(=O)N2CCOCC2)cc1)c1ccccc1 (stereo unspecified) | 14.1 µM [falling, single point] | 
